Test results as given in PMC11742723, “The clinical-stage drug BTZ-043 accumulates in murine tuberculosis lesions and efficiently acts against Mycobacterium tuberculosis” (Nature Communications, 2025).
Where “and” joins values, the source holds several entries; their conditions need not be identical. Equal entries are not always repeated. Further values from the same series stand in other lists.

Legend:
[1] = LCM coupled LC-MS/MS of necrotic granulomas and non-necrotic regions; type: in vivo, IL-13tg mice; details: for ng BTZ-043 / mg tissue: LCM samples of mouse KW116 B11#1 (female)
Method: Necrotic granulomas and non-necrotic regions were dissected from 2 to 3 γ−irradiated serial lung cryosections (thickness: 12 µm) using a PALM Microbeam (Zeiss, Oberkochen, Germany). Laser-dissected tissues were captured in an ascorbic acid solution (2.5 mg/mL) to prevent the degradation of BTZ-043 and stored at -80 °C. Samples were thawed on ice before drying in the SpeedVac. For reconstitution 80 µL of an 80% ACN/ 20% FA, containing 20 ng/mL reserpine and d4-BTZ-043, were added. The samples were vortexed for 1 min and kept in an ultrasonic bath for 3 min. Subsequently, the samples were centrifuged (10 min, 15,000 × g). The supernatant was transferred into a glass vial and 5 µL was injected into the LC. The LC settings and MS parameters were the same as described for the tissue mimetics (Supplementary Methods). As internal standard d4-BTZ-043 was utilized, with the m/z-transitions 436.0 → 86.0 (cone voltage of 30 V, collision energy of 30 eV, dwell time of 0.2 s) as quantifier. With the expected very low concentrations of the analyte in the LCM material, the deuterated standard was applied to better mimic matrix effects and recovery for this analysis. For calibration curve preparation lung homogenate from drug-naïve mice was added to 80% ACN/20% FA (1%), containing reserpine (as QC) and d4-BTZ-043 (20 ng/mL per sample) to the final solution containing about 0.44 µg tissue/mL, which equals the average weight of the obtained material of the LCM. After centrifugation (5 min, 15,000 × g) the supernatant was spiked with BTZ-043 to yield a calibration curve ranging from 0.00015–0.025 µg/mL.

Mtb H37Rv = test: BTZ-043 dose-fractionation study in Mtb-infected BALB/c mice (lung CFU); type: in vivo, Mycobacterium tuberculosis; details: 6 weeks of treatment, individual female mice
[2] = 2 h after administration; mouse KW116 B9#1 (male); individual cryosections
[3] = MALDI imaging and penetration analysis in centrally necrotizing granulomas
[4] = LCM flakes from granulome area (granuloma), IL-13tg mouse lung cryosections, 4h post administration, listed as BTZ

In the case of `C[C@H]1COC2(CCN(c3nc(=O)c4cc(C(F)(F)F)cc([N+](=O)[O-])c4s3)CC2)O1` [BTZ-043], the “ng/mg lung tissue, technical replicate 1” value [1, 4] is reported as 0.369 ng/mg lung tissue and 0.458 ng/mg lung tissue and 0.813 ng/mg lung tissue, the “ng/mg lung tissue, technical replicate 2” value [1, 4] is reported as 0.870 ng/mg lung tissue and 0.482 ng/mg lung tissue and the “ng BTZ-043 / mg tissue” value ([1]; necrotic granuloma) is reported as 0.66 ng / mg tissue and 0.65 ng / mg tissue and 0.43 ng / mg tissue. The “ng BTZ-043 / mg tissue” value ([1]; non-necrotic region) was 0.34 ng / mg tissue and 0.38 ng / mg tissue and 0.30 ng / mg tissue, the “pulmonary CFU counts / mouse” value (Mtb H37Rv; 2.5 mg/kg BTZ-043 QD) was 157501 CFU counts / mouse and the “pulmonary CFU counts / mouse” value (Mtb H37Rv; 5 mg/kg BTZ-043 BID) was 21501 CFU counts / mouse and 4501 CFU counts / mouse and 12501 CFU counts / mouse and 8001 CFU counts / mouse. The “pulmonary CFU counts / mouse” value (Mtb H37Rv; 5 mg/kg BTZ-043 QD) was 117501 CFU counts / mouse and 42501 CFU counts / mouse, the “pulmonary CFU counts / mouse” value (Mtb H37Rv; 10 mg/kg BTZ-043 BID) was 2001 CFU counts / mouse and 501 CFU counts / mouse and 1501 CFU counts / mouse and 8501 CFU counts / mouse and the “pulmonary CFU counts / mouse” value (Mtb H37Rv; 10 mg/kg BTZ-043 QD) was 42501 CFU counts / mouse and 37501 CFU counts / mouse and 24001 CFU counts / mouse. For the same compound, the “pulmonary CFU counts / mouse” value (Mtb H37Rv; 25 mg/kg BTZ-043 BID) was 301 CFU counts / mouse (2×) and 201 CFU counts / mouse and 251 CFU counts / mouse, the “pulmonary CFU counts / mouse” value (Mtb H37Rv; 25 mg/kg BTZ-043 QD) was 4501 CFU counts / mouse and 4901 CFU counts / mouse (2×) and 12501 CFU counts / mouse and the “pulmonary CFU counts / mouse” value (Mtb H37Rv; 50 mg/kg BTZ-043 BID) was 201 CFU counts / mouse and 251 CFU counts / mouse and 2751 CFU counts / mouse and 1151 CFU counts / mouse. For the same compound, the “pulmonary CFU counts / mouse” value (Mtb H37Rv; 50 mg/kg BTZ-043 QD) was 801 CFU counts / mouse and 2501 CFU counts / mouse and 901 CFU counts / mouse and 101 CFU counts / mouse, the “pulmonary CFU counts / mouse” value (Mtb H37Rv; 100 mg/kg BTZ-043 QD) was 426 CFU counts / mouse and 226 CFU counts / mouse and 1101 CFU counts / mouse and 551 CFU counts / mouse and the “pulmonary CFU counts / mouse” value (Mtb H37Rv; 250 mg/kg BTZ-043 QD) was 31 CFU counts / mouse and 101 CFU counts / mouse and 151 CFU counts / mouse and 51 CFU counts / mouse. For the same compound, the “ng BTZ-043 / mg cryosection” value [2] was 1.06 ng / mg cryosection, the Mean intensity ([3]; Left Granuloma, Distance 35 μm) was 236.17 and the Mean intensity ([3]; Left Granuloma, Distance 45 μm) was 282.39. For the same compound, the Mean intensity ([3]; Left Granuloma, Distance 55 μm) was 310.51, the Mean intensity ([3]; Left Granuloma, Distance 65 μm) was 324.23 and the Mean intensity ([3]; Left Granuloma, Distance 75 μm) was 346.18. For the same compound, the Mean intensity ([3]; Left Granuloma, Distance 85 μm) was 367.03, the Mean intensity ([3]; Left Granuloma, Distance 95 μm) was 388.03 and the Mean intensity ([3]; Left Granuloma, Distance 105 μm) was 370.88. It also gave a Mean intensity ([3]; Left Granuloma, Distance 115 μm) of 377.58, a Mean intensity ([3]; Left Granuloma, Distance 125 μm) of 383.7 and a Mean intensity ([3]; Left Granuloma, Distance 135 μm) of 371.16. It also gave a Mean intensity ([3]; Left Granuloma, Distance 145 μm) of 401.4, a Mean intensity ([3]; Left Granuloma, Distance 155 μm) of 392.24 and a Mean intensity ([3]; Left Granuloma, Distance 165 μm) of 371.48. It also gave a Mean intensity ([3]; Left Granuloma, Distance 175 μm) of 382.06, a Mean intensity ([3]; Left Granuloma, Distance 185 μm) of 388.34 and a Mean intensity ([3]; Left Granuloma, Distance 195 μm) of 405.53. For the same compound, the Mean intensity ([3]; Left Granuloma, Distance 205 μm) was 387.79, the Mean intensity ([3]; Left Granuloma, Distance 215 μm) was 399.58 and the Mean intensity ([3]; Left Granuloma, Distance 225 μm) was 383.92. It also gave a Mean intensity ([3]; Left Granuloma, Distance 235 μm) of 377.36, a Mean intensity ([3]; Left Granuloma, Distance 245 μm) of 373.48 and a Mean intensity ([3]; Left Granuloma, Distance 255 μm) of 386.55. For the same compound, the Mean intensity ([3]; Left Granuloma, Distance 265 μm) was 359.62, the Mean intensity ([3]; Left Granuloma, Distance 275 μm) was 353.17 and the Mean intensity ([3]; Left Granuloma, Distance 285 μm) was 377.6. The Mean intensity ([3]; Left Granuloma, Distance 295 μm) was 355, the Mean intensity ([3]; Left Granuloma, Distance 305 μm) was 371.92 and the Mean intensity ([3]; Left Granuloma, Distance 315 μm) was 340.38. For the same compound, the Mean intensity ([3]; Left Granuloma, Distance 325 μm) was 368.57, the Mean intensity ([3]; Left Granuloma, Distance 335 μm) was 369.17 and the Mean intensity ([3]; Left Granuloma, Distance 345 μm) was 346.57. For the same compound, the Mean intensity ([3]; Left Granuloma, Distance 355 μm) was 331.68, the Mean intensity ([3]; Left Granuloma, Distance 365 μm) was 311.31 and the Mean intensity ([3]; Left Granuloma, Distance 375 μm) was 293.47. For the same compound, the Mean intensity ([3]; Left Granuloma, Distance 385 μm) was 306.24, the Mean intensity ([3]; Left Granuloma, Distance 395 μm) was 284.78 and the Mean intensity ([3]; Left Granuloma, Distance 405 μm) was 259.38. For the same compound, the Mean intensity ([3]; Left Granuloma, Distance 415 μm) was 258.04, the Mean intensity ([3]; Left Granuloma, Distance 425 μm) was 238.33 and the Mean intensity ([3]; Left Granuloma, Distance 435 μm) was 228.24. It also gave a Mean intensity ([3]; Left Granuloma, Distance 445 μm) of 200.86, a Mean intensity ([3]; Left Granuloma, Distance -455 μm) of 59.166 and a Mean intensity ([3]; Left Granuloma, Distance -465 μm) of 58.773. It also gave a Mean intensity ([3]; Left Granuloma, Distance -475 μm) of 59.938, a Mean intensity ([3]; Left Granuloma, Distance -485 μm) of 61.183 and a Mean intensity ([3]; Left Granuloma, Distance -495 μm) of 60.107. The Mean intensity ([3]; Right Granuloma, Distance 25 μm) was 246.96, the Mean intensity ([3]; Right Granuloma, Distance 35 μm) was 285.28 and the Mean intensity ([3]; Right Granuloma, Distance 45 μm) was 285.32. For the same compound, the Mean intensity ([3]; Right Granuloma, Distance 55 μm) was 285.66, the Mean intensity ([3]; Right Granuloma, Distance 65 μm) was 263.2 and the Mean intensity ([3]; Right Granuloma, Distance 75 μm) was 269.9. The Mean intensity ([3]; Right Granuloma, Distance 85 μm) was 264.64, the Mean intensity ([3]; Right Granuloma, Distance 95 μm) was 262.82 and the Mean intensity ([3]; Right Granuloma, Distance 105 μm) was 237.99. The Mean intensity ([3]; Right Granuloma, Distance 115 μm) was 232.53, the Mean intensity ([3]; Right Granuloma, Distance 125 μm) was 217.71 and the Mean intensity ([3]; Right Granuloma, Distance 135 μm) was 200.2. For the same compound, the Mean intensity ([3]; Right Granuloma, Distance 145 μm) was 196.76, the Mean intensity ([3]; Right Granuloma, Distance 155 μm) was 171.73 and the Mean intensity ([3]; Right Granuloma, Distance 165 μm) was 157.99. The Mean intensity ([3]; Right Granuloma, Distance 175 μm) was 141.92, the Mean intensity ([3]; Right Granuloma, Distance 185 μm) was 149.28 and the Mean intensity ([3]; Right Granuloma, Distance 195 μm) was 127.55. The Mean intensity ([3]; Right Granuloma, Distance 205 μm) was 110.03, the Mean intensity ([3]; Right Granuloma, Distance 215 μm) was 109 and the Mean intensity ([3]; Right Granuloma, Distance 225 μm) was 107.72. The Mean intensity ([3]; Right Granuloma, Distance 235 μm) was 104.5, the Mean intensity ([3]; Right Granuloma, Distance 245 μm) was 85.525 and the Mean intensity ([3]; Right Granuloma, Distance 255 μm) was 86.627. It also gave a Mean intensity ([3]; Right Granuloma, Distance 265 μm) of 83.831, a Mean intensity ([3]; Right Granuloma, Distance 275 μm) of 57.766 and a Mean intensity ([3]; Right Granuloma, Distance 285 μm) of 61.956. For the same compound, the Mean intensity ([3]; Right Granuloma, Distance 295 μm) was 41.615, the Mean intensity ([3]; Right Granuloma, Distance 305 μm) was 38.157 and the Mean intensity ([3]; Right Granuloma, Distance 315 μm) was 32.303. It also gave a Mean intensity ([3]; Right Granuloma, Distance 325 μm) of 44.171, a Mean intensity ([3]; Right Granuloma, Distance 335 μm) of 27.125 and a Mean intensity ([3]; Right Granuloma, Distance 345 μm) of 33.852. For the same compound, the Mean intensity ([3]; Right Granuloma, Distance 355 μm) was 24.948, the Mean intensity ([3]; Right Granuloma, Distance 365 μm) was 44.659 and the Mean intensity ([3]; Right Granuloma, Distance 375 μm) was 25.156. The Mean intensity ([3]; Right Granuloma, Distance 385 μm) was 0, the Mean intensity ([3]; Right Granuloma, Distance -455 μm) was 48.937 and the Mean intensity ([3]; Right Granuloma, Distance -465 μm) was 54.472. It also gave a Mean intensity ([3]; Right Granuloma, Distance -475 μm) of 49.857, a Mean intensity ([3]; Right Granuloma, Distance -485 μm) of 45.472 and a Mean intensity ([3]; Right Granuloma, Distance -495 μm) of 40.234.
